Data from publication doi:10.1101/2020.05.01.070433.
No constants are given. Whether binding was seen depends on the method and setting. In cells and extracts the contact can be indirect. A yes stands for co-enrichment or nearness to the bait. Other partners may have been found.

Sequences of proteins named here, by UniProt entry; tags and fusion partners are left off.
UniProt Q965S0: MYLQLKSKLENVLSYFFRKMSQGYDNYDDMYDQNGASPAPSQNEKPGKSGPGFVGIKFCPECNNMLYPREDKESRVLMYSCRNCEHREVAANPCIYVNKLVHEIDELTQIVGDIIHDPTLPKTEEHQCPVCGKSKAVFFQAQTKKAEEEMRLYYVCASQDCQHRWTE
UniProt P16356: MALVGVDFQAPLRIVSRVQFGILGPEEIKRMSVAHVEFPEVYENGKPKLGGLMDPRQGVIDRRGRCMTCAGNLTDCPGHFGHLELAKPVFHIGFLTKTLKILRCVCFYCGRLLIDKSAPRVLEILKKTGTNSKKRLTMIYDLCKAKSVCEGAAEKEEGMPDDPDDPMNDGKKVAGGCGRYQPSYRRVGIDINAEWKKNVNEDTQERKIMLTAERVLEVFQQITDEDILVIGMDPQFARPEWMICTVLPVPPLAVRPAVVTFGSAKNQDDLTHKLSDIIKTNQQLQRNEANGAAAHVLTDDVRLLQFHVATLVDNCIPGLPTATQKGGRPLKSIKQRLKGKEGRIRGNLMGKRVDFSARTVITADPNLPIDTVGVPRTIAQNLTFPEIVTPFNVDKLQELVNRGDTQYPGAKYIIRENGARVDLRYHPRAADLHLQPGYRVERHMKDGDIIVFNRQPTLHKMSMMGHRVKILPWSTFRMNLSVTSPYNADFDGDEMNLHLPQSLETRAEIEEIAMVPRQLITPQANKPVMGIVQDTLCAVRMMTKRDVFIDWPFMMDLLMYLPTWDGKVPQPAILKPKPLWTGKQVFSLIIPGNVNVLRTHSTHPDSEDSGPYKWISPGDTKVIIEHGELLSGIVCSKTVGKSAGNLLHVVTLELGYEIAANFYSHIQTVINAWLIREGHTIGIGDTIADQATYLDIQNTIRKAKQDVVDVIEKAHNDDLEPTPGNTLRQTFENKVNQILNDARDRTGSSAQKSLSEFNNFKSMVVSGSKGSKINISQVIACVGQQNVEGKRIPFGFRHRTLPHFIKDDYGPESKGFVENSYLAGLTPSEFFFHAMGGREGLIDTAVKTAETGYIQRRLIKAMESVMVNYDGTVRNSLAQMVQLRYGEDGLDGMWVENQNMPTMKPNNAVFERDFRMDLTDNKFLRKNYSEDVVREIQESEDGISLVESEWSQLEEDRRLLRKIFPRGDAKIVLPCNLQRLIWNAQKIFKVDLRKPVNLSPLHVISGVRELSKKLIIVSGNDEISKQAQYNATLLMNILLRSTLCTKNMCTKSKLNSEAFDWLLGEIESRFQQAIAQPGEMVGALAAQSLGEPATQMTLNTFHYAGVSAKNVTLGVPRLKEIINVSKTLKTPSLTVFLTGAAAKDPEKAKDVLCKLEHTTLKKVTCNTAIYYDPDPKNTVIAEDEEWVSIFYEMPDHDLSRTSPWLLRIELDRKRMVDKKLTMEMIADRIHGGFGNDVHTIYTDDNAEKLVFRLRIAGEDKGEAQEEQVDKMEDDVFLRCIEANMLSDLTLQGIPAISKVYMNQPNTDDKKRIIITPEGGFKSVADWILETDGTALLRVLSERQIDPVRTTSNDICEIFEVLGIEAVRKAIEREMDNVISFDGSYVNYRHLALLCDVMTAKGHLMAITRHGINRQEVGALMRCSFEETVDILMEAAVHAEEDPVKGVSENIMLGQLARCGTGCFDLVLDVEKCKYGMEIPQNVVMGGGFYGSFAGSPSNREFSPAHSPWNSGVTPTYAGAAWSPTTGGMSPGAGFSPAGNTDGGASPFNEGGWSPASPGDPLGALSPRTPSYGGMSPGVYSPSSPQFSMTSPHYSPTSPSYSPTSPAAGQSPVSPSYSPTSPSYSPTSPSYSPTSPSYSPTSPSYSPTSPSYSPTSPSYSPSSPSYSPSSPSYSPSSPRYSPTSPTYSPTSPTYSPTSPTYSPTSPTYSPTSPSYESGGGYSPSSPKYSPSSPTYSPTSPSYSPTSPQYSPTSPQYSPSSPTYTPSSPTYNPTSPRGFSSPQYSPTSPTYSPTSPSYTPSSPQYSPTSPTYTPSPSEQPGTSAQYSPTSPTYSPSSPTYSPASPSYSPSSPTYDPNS
UniProt Q9N5K2: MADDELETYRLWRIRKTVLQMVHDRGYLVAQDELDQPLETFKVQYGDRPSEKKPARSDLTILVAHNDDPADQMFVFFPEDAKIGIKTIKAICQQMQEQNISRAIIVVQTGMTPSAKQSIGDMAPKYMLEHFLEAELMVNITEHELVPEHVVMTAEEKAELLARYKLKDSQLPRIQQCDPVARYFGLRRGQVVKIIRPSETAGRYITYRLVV
UniProt Q21338: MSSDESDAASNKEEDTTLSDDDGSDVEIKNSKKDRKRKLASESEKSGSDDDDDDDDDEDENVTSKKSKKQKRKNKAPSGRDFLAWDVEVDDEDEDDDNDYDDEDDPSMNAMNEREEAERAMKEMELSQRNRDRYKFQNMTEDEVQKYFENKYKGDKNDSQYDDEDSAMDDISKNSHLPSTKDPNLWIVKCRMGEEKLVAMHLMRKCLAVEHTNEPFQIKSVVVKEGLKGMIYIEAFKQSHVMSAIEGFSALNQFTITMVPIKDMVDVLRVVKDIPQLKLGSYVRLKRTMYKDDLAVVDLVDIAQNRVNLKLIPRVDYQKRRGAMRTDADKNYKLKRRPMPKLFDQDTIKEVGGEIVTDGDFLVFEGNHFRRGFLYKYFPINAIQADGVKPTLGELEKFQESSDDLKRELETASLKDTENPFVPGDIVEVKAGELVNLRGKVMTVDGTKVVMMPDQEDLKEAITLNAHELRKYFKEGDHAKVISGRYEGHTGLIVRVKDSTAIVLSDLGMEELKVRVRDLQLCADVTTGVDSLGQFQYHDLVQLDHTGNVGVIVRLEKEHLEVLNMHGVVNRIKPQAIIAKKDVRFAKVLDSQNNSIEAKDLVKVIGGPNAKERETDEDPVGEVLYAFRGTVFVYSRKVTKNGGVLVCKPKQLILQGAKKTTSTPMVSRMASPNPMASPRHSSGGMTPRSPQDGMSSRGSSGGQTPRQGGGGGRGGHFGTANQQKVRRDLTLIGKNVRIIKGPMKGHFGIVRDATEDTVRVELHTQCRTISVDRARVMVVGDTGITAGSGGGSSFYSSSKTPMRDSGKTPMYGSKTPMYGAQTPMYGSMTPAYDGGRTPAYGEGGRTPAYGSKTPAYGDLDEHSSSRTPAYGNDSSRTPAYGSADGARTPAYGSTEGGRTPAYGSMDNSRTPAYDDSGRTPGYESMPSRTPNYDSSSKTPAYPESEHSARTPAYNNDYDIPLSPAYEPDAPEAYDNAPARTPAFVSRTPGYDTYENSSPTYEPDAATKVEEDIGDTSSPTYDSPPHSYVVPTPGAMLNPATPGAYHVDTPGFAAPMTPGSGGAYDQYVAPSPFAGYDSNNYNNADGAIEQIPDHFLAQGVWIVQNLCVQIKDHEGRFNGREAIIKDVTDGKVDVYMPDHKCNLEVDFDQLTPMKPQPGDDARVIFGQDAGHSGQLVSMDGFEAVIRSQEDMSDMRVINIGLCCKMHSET
UniProt P34703: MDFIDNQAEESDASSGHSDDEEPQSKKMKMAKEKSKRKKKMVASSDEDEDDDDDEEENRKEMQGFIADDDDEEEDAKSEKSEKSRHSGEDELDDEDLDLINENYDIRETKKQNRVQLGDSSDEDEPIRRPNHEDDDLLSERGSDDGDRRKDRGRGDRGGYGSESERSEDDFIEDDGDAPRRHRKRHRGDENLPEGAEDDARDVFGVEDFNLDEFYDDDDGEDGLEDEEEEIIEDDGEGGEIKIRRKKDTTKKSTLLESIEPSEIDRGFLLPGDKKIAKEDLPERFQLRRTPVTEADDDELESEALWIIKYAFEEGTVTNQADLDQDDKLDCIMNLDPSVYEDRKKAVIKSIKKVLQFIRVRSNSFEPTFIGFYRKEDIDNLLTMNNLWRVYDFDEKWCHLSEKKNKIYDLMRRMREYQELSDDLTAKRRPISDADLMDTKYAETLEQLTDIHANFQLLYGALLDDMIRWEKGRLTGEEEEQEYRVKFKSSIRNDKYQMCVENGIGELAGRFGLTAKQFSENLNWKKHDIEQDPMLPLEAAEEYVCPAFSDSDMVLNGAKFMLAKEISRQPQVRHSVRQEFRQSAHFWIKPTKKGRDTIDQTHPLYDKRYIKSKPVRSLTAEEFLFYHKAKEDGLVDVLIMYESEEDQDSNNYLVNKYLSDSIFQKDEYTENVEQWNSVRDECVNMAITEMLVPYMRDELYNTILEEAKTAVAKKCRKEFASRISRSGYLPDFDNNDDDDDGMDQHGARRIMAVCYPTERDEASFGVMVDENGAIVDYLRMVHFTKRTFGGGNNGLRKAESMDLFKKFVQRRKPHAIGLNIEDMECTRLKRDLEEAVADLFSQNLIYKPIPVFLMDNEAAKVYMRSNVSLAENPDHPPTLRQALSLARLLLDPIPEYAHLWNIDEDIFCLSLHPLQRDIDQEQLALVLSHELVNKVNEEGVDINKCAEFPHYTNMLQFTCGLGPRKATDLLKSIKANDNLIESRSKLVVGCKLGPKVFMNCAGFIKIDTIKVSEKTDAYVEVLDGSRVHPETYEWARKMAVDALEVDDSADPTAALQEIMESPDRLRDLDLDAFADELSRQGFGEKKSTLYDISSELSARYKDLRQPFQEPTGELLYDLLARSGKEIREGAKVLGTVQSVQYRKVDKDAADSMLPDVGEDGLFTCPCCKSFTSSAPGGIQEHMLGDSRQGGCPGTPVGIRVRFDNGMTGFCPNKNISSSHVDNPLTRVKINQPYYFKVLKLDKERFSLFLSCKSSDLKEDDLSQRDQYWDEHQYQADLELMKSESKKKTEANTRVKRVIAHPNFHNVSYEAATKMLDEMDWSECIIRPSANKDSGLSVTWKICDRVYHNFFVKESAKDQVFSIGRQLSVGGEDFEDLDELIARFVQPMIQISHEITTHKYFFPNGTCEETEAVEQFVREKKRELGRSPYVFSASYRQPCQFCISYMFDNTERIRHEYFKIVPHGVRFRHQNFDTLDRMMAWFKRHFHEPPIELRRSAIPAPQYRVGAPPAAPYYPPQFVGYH

B1: CTR-9 (protein, UniProt Q03560 1-1150)
chain: MDESIDDVQETRTIAIPLKDSHEDEVIEINCSELPDGEEVLQILEAEEAKLSYWIEVALEYYRQDRVDLFMMILESAGSRAGLEYEGVKQDQMRALDILAAYWMTQGYREKAKDKKSDFFSKATVLFNTADKIAMYEWSHLTVRAWFYLFERDKSTNKYELADQQFNYVVKTNPKNVLPLIGKAVIAFNKKDYKTAIYYFRKAIRQCRHTIADLRVGIGHCFAKMGMMDKAKTAFERAMEIEPYNVSAMCGLGIILLNTYDHDSLKHAVSLFGRSYNLQTDHPVALIHLANHFFFKKEIERAWTLAWHAATYNDCDSIKAEAFYQMGRCRHAQGQFDGAYKYYYQARQANNGEHTLAHYGLGQMYIHRNEIEEAIKCFDTVHKRLPNNTDTMKILGSLYAHVQLNDPAQTAEARQKGRDVLGKYLAVENDDYEACIDLAQLLEATDPKRSLELYENAIDLLVTNESIQPQPEMLNNVGALYMSMKQYEKAEHHFKRAKERLEEQLNTDEGSLLLERRSAPEKSHLLTIRYNLALCLEHLCRTVEAEQMYKDIVKECPGYIDGYLRLGCITRDRHQVYESSLWLKQGVQFDQASPIVWTLIGNLHFAKNEWMPAQKKFEFILSKIFNNKIPDPYSLVALGNVWFEQLLNPSRKKEDEKKYIDRALQMYQKALKLQPKNMYAANGIGCVLAYKRNWNDARDVFSQVRESTSEFYDVWLNIAHVCMEREQWMAAVQMYSSAMKKFRKENDSTLQHYLAKAYYRANMLNEAKEALECAMLDQLDNTQLKFNYAIVLKKSAKEVLRGHKMTSEQVTAAIDDLKFADKIFQYISKNDDRQSSHTGMRISRTICAEEAKNCKDLLTQAKHKLAAAQTQDEEERRLMEKQEKEKIALQNKMIEEARAKEEAEKQKLEDMKNLRLSFIEMTKDVLRLPEIVEEKRRGGGGRKRRNDDGDEFVNDSSDAGNYDGEEGGEDGERRERRKKDKAAKKASRKKRERRDSGGPDSNRRDEKKRKRKEERDRKLQEKLSAKQSAKIKSRAFLSSSESSDDDKPKPAADSSDDEVDPRPPVDEFDSPTRTDSDSDRETTTKKKKKKAVVDSDEGSVSGSGSGSDNDDKPIIGGSDDDDDDKPAGGNSRDSDGSDAPKKKVIESDSD

target: RPB-9::OLLAS (C. elegans) (UniProt Q965S0); assay: affinity purification with mass spectrometry

Q: How did the binding turn out when “RPB-1/AMA-1 (from UniProt P16356 1-1856)” was run?
A: The binding was “binds”.

Q: Which binding does the source give for RPB-5 (from UniProt Q9N5K2 1-211) here?
A: The binding was “binds”.

Q: With SPT-5 (from UniProt Q21338 1-1208) as the molecule, how does the binding read?
A: The binding was “binds”.

Q: EMB-5 (from UniProt P34703 1-1521) was tested. Which binding did it give?
A: The binding was “binds”.

Q: Which binding does the source give for B1 here?
A: The binding was “binds”.
